{"source": "PubChem BioAssay AID504808 (Drosophila RNAi Screening Center, 2011)", "test": "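Genes whose loss lifts activity of an E2F-responsive reporter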 (primary screen)", "cell system": "Drosophila S2 cells", "knock-down reagent": "long dsRNA against Drosophila genes", "read-out": "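Dual luciferase plate measurements; E2F-specific signal taken as firefly over Renilla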", "reading the numbers": "E2F firefly: higher = more E2F reporter activity; Renilla normaliser: higher = more normaliser reporter signal", "active means": "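a knock-down counted as active when the firefly/Renilla E2F signal rose above 50%, a threshold chosen arbitrarily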", "note": "The deposit covers about 21,000 reagents; this is an unselected part of those with a known target gene and a result. In the full data, 18 (0.084%) got an active call. 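Raw counts without plate normalisation, one of two replicates; the ratio scores behind the calls were not deposited.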 Reagents against one gene are numbered here. Names joined by + are all predicted targets of the reagent. The record does not give: the amount of reagent, the time to read-out."}
{"predicted target": "Csl4", "reagent no.": 1, "E2F firefly, rep 1": 1.50e5, "Renilla normaliser, rep 1": 5225, "Call": "inactive"}
{"predicted target": "CG31688 + CG31687", "reagent no.": 1, "E2F firefly, rep 1": 97777, "Renilla normaliser, rep 1": 3832, "Call": "inactive"}
{"predicted target": "AstA-R1", "reagent no.": 1, "E2F firefly, rep 1": 90265, "Renilla normaliser, rep 1": 2613, "Call": "inactive"}
{"predicted target": "AstA-R1", "reagent no.": 2, "E2F firefly, rep 1": 98144, "Renilla normaliser, rep 1": 6687, "Call": "inactive"}
{"predicted target": "UGP + PGRP-LF", "reagent no.": 1, "E2F firefly, rep 1": 1.04e5, "Renilla normaliser, rep 1": 5198, "Call": "inactive"}
{"predicted target": "blanks", "reagent no.": 1, "E2F firefly, rep 1": 1.02e5, "Renilla normaliser, rep 1": 4425, "Call": "inactive"}
{"predicted target": "Smvt", "reagent no.": 1, "E2F firefly, rep 1": 56355, "Renilla normaliser, rep 1": 3701, "Call": "inactive"}
{"predicted target": "Mmp1", "reagent no.": 1, "E2F firefly, rep 1": 1.11e5, "Renilla normaliser, rep 1": 4573, "Call": "inactive"}
{"predicted target": "Aos1", "reagent no.": 1, "E2F firefly, rep 1": 1.59e5, "Renilla normaliser, rep 1": 6693, "Call": "inactive"}
{"predicted target": "Mct1", "reagent no.": 1, "E2F firefly, rep 1": 1.13e5, "Renilla normaliser, rep 1": 6142, "Call": "inactive"}
{"predicted target": "CG13086", "reagent no.": 1, "E2F firefly, rep 1": 97521, "Renilla normaliser, rep 1": 3620, "Call": "inactive"}
{"predicted target": "CG14767", "reagent no.": 1, "E2F firefly, rep 1": 2976, "Renilla normaliser, rep 1": 200, "Call": "inactive"}
{"predicted target": "Arf6", "reagent no.": 1, "E2F firefly, rep 1": 1.03e5, "Renilla normaliser, rep 1": 4345, "Call": "inactive"}
{"predicted target": "sta", "reagent no.": 1, "E2F firefly, rep 1": 71166, "Renilla normaliser, rep 1": 5846, "Call": "inactive"}
{"predicted target": "CG9822", "reagent no.": 1, "E2F firefly, rep 1": 97101, "Renilla normaliser, rep 1": 4346, "Call": "inactive"}
{"predicted target": "CG32473", "reagent no.": 1, "E2F firefly, rep 1": 1.18e5, "Renilla normaliser, rep 1": 5653, "Call": "inactive"}
{"predicted target": "CG32473", "reagent no.": 2, "E2F firefly, rep 1": 83775, "Renilla normaliser, rep 1": 3218, "Call": "inactive"}
{"predicted target": "Rab14", "reagent no.": 1, "E2F firefly, rep 1": 84578, "Renilla normaliser, rep 1": 4136, "Call": "inactive"}

Targets above whose target name starts with A or a (4):
{"predicted target": "AstA-R1", "reagent no.": 1, "E2F firefly, rep 1": 90265, "Renilla normaliser, rep 1": 2613, "Call": "inactive"}
{"predicted target": "AstA-R1", "reagent no.": 2, "E2F firefly, rep 1": 98144, "Renilla normaliser, rep 1": 6687, "Call": "inactive"}
{"predicted target": "Aos1", "reagent no.": 1, "E2F firefly, rep 1": 1.59e5, "Renilla normaliser, rep 1": 6693, "Call": "inactive"}
{"predicted target": "Arf6", "reagent no.": 1, "E2F firefly, rep 1": 1.03e5, "Renilla normaliser, rep 1": 4345, "Call": "inactive"}

Further records follow.
{"predicted target": "CG14451", "reagent no.": 1, "E2F firefly, rep 1": 1.37e5, "Renilla normaliser, rep 1": 6840, "Call": "inactive"}
{"predicted target": "poe", "reagent no.": 1, "E2F firefly, rep 1": 94272, "Renilla normaliser, rep 1": 4602, "Call": "inactive"}
{"predicted target": "CLIP-190", "reagent no.": 1, "E2F firefly, rep 1": 77951, "Renilla normaliser, rep 1": 3547, "Call": "inactive"}
{"predicted target": "Dro", "reagent no.": 1, "E2F firefly, rep 1": 1.04e5, "Renilla normaliser, rep 1": 4706, "Call": "inactive"}
{"predicted target": "gnu", "reagent no.": 1, "E2F firefly, rep 1": 81781, "Renilla normaliser, rep 1": 3696, "Call": "inactive"}
{"predicted target": "Cul2", "reagent no.": 1, "E2F firefly, rep 1": 82683, "Renilla normaliser, rep 1": 4212, "Call": "inactive"}
{"predicted target": "CG14024", "reagent no.": 1, "E2F firefly, rep 1": 1.32e5, "Renilla normaliser, rep 1": 4919, "Call": "inactive"}
{"predicted target": "CG14024", "reagent no.": 2, "E2F firefly, rep 1": 1.04e5, "Renilla normaliser, rep 1": 3628, "Call": "inactive"}
{"predicted target": "CG10953", "reagent no.": 1, "E2F firefly, rep 1": 1.43e5, "Renilla normaliser, rep 1": 5477, "Call": "inactive"}
{"predicted target": "yellow-h", "reagent no.": 1, "E2F firefly, rep 1": 1.11e5, "Renilla normaliser, rep 1": 5136, "Call": "inactive"}
